Reference: PMC12469161, “Anti-cancer compound screening identifies Aurora Kinase A inhibition as a means to favor CRISPR/Cas9 gene correction over knock-out” (PLOS One, 2025)

System: HEK293T-eGFP cells
Assay: MTT cytotoxicity assay, 72 hours
Assay type: cell-based
Description: Cells were cultured for 16–24 hours under standard culturing conditions (5% CO2, 37 °C). […] All dose ranges were added in duplicate, followed by 72 hours of incubation. Cell viability was determined using a tetrazolium based metabolic activity assay. Briefly, 5 µL of 3-(4.5-dimethylthiazol-2-yl)-2,5-diphenyltetrazolium bromide (MTT) solution (5 mg/mL MTT in sterile PBS) was added per well, and the microplates were incubated for 4 hours at 37°C and 5% CO2 in a cell culture incubator. Next, 40 µL of 10% SDS/0.01 M HCl was added per well, and the microplates were incubated for 24–72 hours at 37°C and 5% CO2 in a cell culture incubator. Subsequently the absorbance at 570 nm and background absorbance at 720 nm were measured using the Spectramax i3x (Molecular Devices, San Jose, USA). Subsequently, the absorbance values at 720 nm were subtracted from the absorbance values at 570 nm, and the corresponding values were used to plot dose-response curves.
The data was normalized to the DMSO-treated cells (defined as 100% viability) and the empty controls (defined as 0% viability).

## CCNC(=O)C[C@@H]1N=C(c2ccc(Cl)cc2)c2cc(OC)ccc2-n2c(C)nnc21 [Molibresib]
  IC50: 1.78 µM
